Results on one molecule are retold here after patent US20070275887A1, “Method of Inhibiting Secretase Activity” (priority 2003, published 2007).

Amino acid sequences for entries named in this document (tags omitted). A change or cut given only in a name is not applied to a line headed by its entry.
UniProt Q86TM6: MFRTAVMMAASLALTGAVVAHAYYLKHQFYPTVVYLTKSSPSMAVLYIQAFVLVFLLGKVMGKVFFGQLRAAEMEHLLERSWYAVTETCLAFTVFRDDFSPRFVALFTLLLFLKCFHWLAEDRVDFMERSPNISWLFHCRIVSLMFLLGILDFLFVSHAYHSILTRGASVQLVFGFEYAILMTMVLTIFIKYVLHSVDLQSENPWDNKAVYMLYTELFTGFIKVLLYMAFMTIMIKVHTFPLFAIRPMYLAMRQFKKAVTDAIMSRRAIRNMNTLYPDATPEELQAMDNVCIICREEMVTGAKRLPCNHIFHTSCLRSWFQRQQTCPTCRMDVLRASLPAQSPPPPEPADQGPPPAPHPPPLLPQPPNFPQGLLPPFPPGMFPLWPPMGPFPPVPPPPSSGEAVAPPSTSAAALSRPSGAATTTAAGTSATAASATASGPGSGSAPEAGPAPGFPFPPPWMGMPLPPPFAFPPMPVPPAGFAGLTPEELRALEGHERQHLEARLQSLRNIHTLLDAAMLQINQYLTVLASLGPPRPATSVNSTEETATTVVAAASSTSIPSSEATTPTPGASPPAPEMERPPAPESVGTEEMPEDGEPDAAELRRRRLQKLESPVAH

Results are given in words; binding and its absence hold for the method and conditions named. Binding seen in cells or lysates may run through a third protein. Some entries that bind do so weakly or less than the wild type.

For the assay, the target named is Flag-Syno dTM fusion protein (human) (UniProt Q86TM6). Put plainly: GST pull-down assay with fragments.

With GYTPYGWLQLSWFQQIYARQYYMQYLAATAASGAFVPPPS [Herp amino acid sequence Nos. 161-200], the binding entry is listed as “binds”.
